# Assay results reported in the supplement of paper PMC12067093, “Discovery and optimisation of a covalent ligand for TRIM25 and its application to targeted protein ubiquitination” (Chemical Science, 2025).
# Sequences of proteins named here, by UniProt entry; tags and fusion partners are left off. A change or cut given only in a name is not applied to a line headed by its entry.
# UniProt Q8IWV7: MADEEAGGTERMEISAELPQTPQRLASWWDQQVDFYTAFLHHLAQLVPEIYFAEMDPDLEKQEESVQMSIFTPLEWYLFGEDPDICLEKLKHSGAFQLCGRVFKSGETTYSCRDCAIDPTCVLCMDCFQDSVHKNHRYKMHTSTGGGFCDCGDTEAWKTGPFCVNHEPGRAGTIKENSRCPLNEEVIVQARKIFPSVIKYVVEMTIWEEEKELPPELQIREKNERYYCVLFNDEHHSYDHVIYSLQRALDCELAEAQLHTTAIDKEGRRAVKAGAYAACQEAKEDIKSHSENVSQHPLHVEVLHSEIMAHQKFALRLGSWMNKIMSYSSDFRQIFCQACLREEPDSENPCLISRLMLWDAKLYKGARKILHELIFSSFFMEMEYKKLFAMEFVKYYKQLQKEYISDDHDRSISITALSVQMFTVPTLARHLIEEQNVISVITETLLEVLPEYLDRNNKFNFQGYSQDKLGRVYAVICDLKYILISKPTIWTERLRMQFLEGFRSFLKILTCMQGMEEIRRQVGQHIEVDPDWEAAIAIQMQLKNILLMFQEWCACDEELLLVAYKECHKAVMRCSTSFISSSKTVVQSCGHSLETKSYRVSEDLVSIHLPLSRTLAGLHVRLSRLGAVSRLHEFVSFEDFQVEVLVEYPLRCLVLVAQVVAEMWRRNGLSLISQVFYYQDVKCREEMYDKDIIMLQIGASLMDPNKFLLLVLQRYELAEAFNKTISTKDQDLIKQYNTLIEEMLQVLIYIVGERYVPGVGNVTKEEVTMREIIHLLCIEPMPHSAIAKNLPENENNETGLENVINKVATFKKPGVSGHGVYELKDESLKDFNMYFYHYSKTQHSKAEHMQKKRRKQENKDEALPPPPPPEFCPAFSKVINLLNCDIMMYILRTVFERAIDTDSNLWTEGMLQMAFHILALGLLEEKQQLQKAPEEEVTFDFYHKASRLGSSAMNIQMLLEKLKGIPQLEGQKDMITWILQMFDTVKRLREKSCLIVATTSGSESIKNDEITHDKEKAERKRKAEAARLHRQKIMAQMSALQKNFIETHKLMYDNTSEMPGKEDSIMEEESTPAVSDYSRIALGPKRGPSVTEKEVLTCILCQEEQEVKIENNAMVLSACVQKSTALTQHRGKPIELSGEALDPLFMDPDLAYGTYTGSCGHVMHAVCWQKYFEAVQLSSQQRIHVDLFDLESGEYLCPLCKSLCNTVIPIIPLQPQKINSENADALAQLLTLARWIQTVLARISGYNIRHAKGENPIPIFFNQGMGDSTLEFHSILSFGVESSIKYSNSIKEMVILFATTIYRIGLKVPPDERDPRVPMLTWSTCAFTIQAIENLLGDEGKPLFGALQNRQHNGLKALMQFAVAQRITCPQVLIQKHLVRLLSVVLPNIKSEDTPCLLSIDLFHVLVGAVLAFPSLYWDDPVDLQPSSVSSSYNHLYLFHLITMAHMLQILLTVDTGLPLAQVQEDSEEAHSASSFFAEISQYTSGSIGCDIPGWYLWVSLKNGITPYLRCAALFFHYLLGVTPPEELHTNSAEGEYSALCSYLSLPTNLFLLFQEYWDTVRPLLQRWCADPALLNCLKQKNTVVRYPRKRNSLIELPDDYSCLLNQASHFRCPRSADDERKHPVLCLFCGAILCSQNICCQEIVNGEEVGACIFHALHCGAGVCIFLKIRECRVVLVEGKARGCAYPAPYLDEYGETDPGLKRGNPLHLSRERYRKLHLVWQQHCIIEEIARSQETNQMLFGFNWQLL
# UniProt Q05086: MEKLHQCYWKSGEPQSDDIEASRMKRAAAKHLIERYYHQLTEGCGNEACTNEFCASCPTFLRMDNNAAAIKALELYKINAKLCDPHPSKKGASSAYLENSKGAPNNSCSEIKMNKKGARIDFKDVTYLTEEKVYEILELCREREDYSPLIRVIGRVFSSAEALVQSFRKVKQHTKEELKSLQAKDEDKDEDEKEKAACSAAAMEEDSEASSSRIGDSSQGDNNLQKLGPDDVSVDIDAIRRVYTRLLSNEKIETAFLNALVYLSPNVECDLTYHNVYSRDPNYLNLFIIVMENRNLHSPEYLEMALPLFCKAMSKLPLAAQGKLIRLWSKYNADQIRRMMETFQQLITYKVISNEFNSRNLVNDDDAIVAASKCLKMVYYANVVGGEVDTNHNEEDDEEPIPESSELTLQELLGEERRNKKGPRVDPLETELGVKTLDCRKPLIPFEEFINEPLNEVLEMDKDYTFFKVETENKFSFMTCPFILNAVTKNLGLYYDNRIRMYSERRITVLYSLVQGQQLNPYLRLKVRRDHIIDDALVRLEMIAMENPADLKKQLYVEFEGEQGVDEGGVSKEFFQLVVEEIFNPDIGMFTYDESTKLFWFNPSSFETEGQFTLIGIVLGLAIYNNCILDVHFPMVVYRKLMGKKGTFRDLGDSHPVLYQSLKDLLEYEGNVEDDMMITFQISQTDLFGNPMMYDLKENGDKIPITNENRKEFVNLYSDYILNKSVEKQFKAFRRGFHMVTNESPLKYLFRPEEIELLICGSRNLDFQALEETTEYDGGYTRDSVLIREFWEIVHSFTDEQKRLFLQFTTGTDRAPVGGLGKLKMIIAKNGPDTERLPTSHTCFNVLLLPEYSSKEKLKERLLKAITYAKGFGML
# UniProt P29597: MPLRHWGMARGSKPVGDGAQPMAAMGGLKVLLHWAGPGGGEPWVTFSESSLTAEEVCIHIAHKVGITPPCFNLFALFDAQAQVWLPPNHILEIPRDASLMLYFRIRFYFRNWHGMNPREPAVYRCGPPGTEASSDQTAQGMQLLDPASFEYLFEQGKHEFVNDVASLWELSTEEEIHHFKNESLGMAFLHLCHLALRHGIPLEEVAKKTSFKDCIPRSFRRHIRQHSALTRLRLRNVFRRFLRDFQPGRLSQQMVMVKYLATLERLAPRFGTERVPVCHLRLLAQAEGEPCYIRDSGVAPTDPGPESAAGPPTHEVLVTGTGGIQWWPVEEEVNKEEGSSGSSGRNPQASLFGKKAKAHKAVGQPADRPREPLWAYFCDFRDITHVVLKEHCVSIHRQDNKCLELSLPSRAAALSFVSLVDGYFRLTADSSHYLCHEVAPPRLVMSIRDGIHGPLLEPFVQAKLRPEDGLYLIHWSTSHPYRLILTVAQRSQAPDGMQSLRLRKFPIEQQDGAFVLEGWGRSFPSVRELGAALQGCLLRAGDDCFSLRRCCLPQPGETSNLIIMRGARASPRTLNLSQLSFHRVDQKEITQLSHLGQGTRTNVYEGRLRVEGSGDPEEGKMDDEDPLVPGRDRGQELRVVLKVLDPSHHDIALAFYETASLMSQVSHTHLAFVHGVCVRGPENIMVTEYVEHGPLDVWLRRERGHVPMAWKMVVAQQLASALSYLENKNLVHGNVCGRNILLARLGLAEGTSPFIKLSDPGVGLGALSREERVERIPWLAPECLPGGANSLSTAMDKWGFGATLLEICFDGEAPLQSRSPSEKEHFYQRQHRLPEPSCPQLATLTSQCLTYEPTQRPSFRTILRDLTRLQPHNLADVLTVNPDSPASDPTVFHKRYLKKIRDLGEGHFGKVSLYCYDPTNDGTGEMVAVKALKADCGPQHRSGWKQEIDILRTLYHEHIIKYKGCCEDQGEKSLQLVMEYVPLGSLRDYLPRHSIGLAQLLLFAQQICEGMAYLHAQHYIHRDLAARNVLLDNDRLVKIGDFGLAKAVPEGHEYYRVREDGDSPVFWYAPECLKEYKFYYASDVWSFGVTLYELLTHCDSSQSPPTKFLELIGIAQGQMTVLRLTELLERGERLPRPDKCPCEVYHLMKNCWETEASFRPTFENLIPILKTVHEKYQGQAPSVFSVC
# UniProt P19971: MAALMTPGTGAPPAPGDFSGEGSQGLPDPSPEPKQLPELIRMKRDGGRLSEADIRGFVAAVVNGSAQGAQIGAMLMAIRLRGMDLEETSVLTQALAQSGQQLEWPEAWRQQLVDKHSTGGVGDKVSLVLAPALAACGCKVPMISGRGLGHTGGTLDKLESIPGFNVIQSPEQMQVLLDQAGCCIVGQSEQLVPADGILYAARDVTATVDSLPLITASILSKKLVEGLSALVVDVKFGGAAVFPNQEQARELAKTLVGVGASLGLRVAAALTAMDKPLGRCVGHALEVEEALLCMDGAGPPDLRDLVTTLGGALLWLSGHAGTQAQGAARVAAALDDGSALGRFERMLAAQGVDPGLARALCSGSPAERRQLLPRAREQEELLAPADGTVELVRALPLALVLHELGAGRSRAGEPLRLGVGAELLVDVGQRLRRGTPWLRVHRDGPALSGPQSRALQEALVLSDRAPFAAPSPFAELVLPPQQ
# UniProt Q9BZL1: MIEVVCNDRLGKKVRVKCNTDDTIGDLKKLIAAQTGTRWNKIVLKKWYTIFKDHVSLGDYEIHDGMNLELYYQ
# UniProt Q9GZZ9, whole entry: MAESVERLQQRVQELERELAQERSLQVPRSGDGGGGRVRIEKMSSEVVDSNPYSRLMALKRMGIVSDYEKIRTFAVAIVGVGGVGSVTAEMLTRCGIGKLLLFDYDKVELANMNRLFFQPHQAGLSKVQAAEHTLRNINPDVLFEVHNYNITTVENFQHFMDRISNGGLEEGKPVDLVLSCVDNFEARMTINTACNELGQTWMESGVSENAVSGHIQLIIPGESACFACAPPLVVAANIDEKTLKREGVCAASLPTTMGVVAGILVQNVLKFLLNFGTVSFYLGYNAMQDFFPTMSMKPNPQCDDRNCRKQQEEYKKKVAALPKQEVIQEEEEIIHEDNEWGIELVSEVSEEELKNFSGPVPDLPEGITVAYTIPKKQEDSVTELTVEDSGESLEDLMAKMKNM
# UniProt P26368, whole entry, looked up: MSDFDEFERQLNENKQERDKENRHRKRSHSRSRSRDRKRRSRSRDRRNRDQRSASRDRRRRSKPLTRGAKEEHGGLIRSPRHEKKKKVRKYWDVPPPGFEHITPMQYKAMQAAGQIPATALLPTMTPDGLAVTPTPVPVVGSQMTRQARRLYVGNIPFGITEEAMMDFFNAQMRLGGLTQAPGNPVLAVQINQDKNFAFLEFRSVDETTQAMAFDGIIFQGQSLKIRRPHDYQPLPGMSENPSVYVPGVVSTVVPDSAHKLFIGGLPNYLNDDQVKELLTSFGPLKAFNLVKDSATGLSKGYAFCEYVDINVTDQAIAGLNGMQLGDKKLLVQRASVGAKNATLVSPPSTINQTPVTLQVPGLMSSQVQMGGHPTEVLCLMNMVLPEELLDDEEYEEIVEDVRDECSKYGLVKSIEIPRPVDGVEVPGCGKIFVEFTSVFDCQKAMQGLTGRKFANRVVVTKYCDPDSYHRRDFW
# UniProt O95155, whole entry, looked up: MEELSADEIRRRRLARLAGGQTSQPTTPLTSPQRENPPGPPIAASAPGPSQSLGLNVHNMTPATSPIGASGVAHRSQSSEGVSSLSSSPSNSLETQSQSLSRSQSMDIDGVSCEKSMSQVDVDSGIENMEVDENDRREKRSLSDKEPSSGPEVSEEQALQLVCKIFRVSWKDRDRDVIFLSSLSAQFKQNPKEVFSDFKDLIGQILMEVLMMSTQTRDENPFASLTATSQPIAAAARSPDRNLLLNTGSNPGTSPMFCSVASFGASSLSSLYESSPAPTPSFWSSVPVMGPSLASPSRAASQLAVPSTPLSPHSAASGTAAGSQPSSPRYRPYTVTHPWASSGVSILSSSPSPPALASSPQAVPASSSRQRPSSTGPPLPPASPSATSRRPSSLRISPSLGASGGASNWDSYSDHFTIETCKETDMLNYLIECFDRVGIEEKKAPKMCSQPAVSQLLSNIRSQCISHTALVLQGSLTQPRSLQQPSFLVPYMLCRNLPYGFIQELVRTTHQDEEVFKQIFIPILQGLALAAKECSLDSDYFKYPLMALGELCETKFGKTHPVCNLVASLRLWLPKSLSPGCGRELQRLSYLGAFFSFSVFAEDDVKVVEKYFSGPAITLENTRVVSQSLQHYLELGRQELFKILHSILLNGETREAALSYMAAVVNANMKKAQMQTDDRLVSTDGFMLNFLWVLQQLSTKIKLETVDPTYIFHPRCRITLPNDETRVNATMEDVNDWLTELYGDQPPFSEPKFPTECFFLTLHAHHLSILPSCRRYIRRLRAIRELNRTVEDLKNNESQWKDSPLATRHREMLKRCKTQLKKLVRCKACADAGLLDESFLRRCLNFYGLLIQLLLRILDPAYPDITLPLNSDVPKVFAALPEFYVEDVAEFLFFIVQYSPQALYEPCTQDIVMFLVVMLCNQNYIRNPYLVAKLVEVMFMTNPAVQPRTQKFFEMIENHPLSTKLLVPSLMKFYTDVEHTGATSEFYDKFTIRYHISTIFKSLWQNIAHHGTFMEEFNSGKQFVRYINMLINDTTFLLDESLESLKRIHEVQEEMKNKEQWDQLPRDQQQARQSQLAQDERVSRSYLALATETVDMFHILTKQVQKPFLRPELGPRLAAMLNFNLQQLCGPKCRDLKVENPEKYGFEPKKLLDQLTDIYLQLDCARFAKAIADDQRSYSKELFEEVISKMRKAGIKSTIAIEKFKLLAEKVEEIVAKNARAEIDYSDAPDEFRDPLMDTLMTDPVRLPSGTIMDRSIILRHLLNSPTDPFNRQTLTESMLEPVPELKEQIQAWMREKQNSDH
# The other results are listed elsewhere or left out.
# Compound: CC1Cc2ccccc2N1C(=O)C1CCCN(C1)C(=O)CCl (mixture of isomers) [TRIM25 ligand 11 (diastereomer mixture)]
# Assay: probe-labelled cysteine peptide fold change vs DMSO (competition) (log2 fold change); higher = less target engagement (more negative = stronger competition)
# Conditions: THP-1, incubation time: 4 h
# 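Note: competitive chemoproteomic profiling in live THP-1 cells with an iodoacetamide desthiobiotin (IA-DTB) probe, comparing probe-labelled peptide intensities in compound-treated cells against DMSO-treated controls.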
Target,probe-labelled cysteine peptide fold change (10 µM),probe-labelled cysteine peptide fold change (50 µM)
UBR2_Q8IWV8_1360_ILSDEDKPLFGPLPCR (UniProt Q8IWV8),-0.139,-0.289
UBR1_Q8IWV7_1369_ITCPQVLIQK (UniProt Q8IWV7),-5.95e-05,-0.0534
UBE3A_Q05086_83_LCDPHPSK (UniProt Q05086),0.0899,-0.0221
UBR5_O95071_1942_SHNDEHSDVLPVLDVCSLK (UniProt O95071),-0.586,-0.263
UBR4_Q5T4S7_4642_FKPYCNFDK (UniProt Q5T4S7),0.184,0.12
TYK2_P29597_736_NLVHGNVCGR (UniProt P29597),-0.0301,0.042
TYMP_P19971_361_ALCSGSPAER (UniProt P19971),0.00417,0.154
UBA7_P41226_68_NLVLMGVGSLTLHDPHPTCWSDLAAQFLLSEQDLER (UniProt P41226),0.093,0.0364
UBL5_Q9BZL1_18_CNTDDTIGDLKK (UniProt Q9BZL1),-0.0793,-0.00425
UBR1_Q8IWV7_574_CSTSFISSSK (UniProt Q8IWV7),0.126,0.22
UBR4_Q5T4S7_2618+2619_QLEGDCCSFITQLVNHFWK (UniProt Q5T4S7),-0.00282,0.121
UBR1_Q8IWV7_1197_IHVDLFDLESGEYLCPLCK (UniProt Q8IWV7),0.0747,0.0549
UBR1_Q8IWV7_1101_EVLTCILCQEEQEVK (UniProt Q8IWV7),-0.0135,0.325
UBA5_Q9GZZ9_181_ISNGGLEEGKPVDLVLSCVDNFEAR (UniProt Q9GZZ9),-0.156,-0.169
TXNL1_O43396_149_AGCECLNESDEHGFDNCLRK (UniProt O43396),-0.0286,-0.106
UBA1_P22314_748_CPHPLTFDVNNPLHLDYVMAAANLFAQTYGLTGSQDR (UniProt P22314),0.0693,-0.00354
UBE2I_P63279_43_NPDGTMNLMNWECAIPGKK (UniProt P63279),-0.244,-0.211
UBR4_Q5T4S7_1724_EDGSCLALVK (UniProt Q5T4S7),0.131,0.0997
TXNRD1_Q16881_339_EYCISSDDLFSLPYCPGK (UniProt Q16881),0.364,0.552
UBR2_Q8IWV8_1332_VHPNEEDPRVPIMCWGSCAYTIQSIER (UniProt Q8IWV8),-0.326,-0.616
UBE2S_Q16763_95_IFHPNVGANGEICVNVLK (UniProt Q16763),-0.0198,0.0512

# Taken from the listing for reference:
Target,probe-labelled cysteine peptide fold change (10 µM),probe-labelled cysteine peptide fold change (50 µM)
UBR1_Q8IWV7_1197_IHVDLFDLESGEYLCPLCK (UniProt Q8IWV7),0.0747,0.0549
UBR1_Q8IWV7_1101_EVLTCILCQEEQEVK (UniProt Q8IWV7),-0.0135,0.325
UBA5_Q9GZZ9_181_ISNGGLEEGKPVDLVLSCVDNFEAR (UniProt Q9GZZ9),-0.156,-0.169

# The list continues.

Target,probe-labelled cysteine peptide fold change (10 µM),probe-labelled cysteine peptide fold change (50 µM)
UBA7_P41226_552_CTHYLK (UniProt P41226),0.0123,0.0641
U2AF2_P26368_442_IFVEFTSVFDCQK (UniProt P26368),-0.109,0.0604
UBR1_Q8IWV7_1200_IHVDLFDLESGEYLCPLCK (UniProt Q8IWV7),0.101,0.0329
UBASH3B_Q8TF42_468_LVGEALLESNTIIDHVYCSPSLR (UniProt Q8TF42),0.112,-0.129
U2AF2_P26368_429_SIEIPRPVDGVEVPGCGK (UniProt P26368),0.0667,0.0728
UBA1_P22314_278_VLGPYTFSICDTSNFSDYIR (UniProt P22314),-0.0898,0.00474
UBA6_A0AVT1_449_ACIGDTLCQK,-0.00098,0.131
UAP1L1_Q3KQV9_278_LADPVFIGFCVLQGADCGAK (UniProt Q3KQV9),0.162,0.0886
UBASH3B_Q8TF42_240_LGCDWVATIFSR (UniProt Q8TF42),0.262,0.351
TYK2_P29597_936_ADCGPQHR (UniProt P29597),0.0163,-0.00962
UBE2K_P61086_170_KIENLCAMGFDR (UniProt P61086),-0.0455,0.0315
TYK2_P29597_278_VPVCHLR (UniProt P29597),-0.0755,-0.0104
UBN1_Q9NPG3_711_VGGVLCTEEK (UniProt Q9NPG3),0.0405,-0.103
TXNRD1_Q16881_577_IICNTK (UniProt Q16881),0.634,0.851
UBASH3B_Q8TF42_135_AHNIFPHITLCQFFMCEDSKVDALGEALQTTVSR (UniProt Q8TF42),0.145,0.126
TXNIP_Q9H3M7_36_VIVEVCEVTR (UniProt Q9H3M7),0.136,0.375
TXNRD2_Q9NNW7_483_CGASYAQVMR (UniProt Q9NNW7),-0.00687,0.0142
TYMS_P04818_180_IIMCAWNPR (UniProt P04818),0.108,0.434
UBAP2L_Q14157_68_NQDECVIALHDCNGDVNR (UniProt Q14157),0.146,0.0638
UBE3C_Q15386_1018_FVTSCSRPPLLGFK (UniProt Q15386),-0.0534,0.0104
TYMP_P19971_138_VSLVLAPALAACGCK (UniProt P19971),-0.0756,-0.184

Target,probe-labelled cysteine peptide fold change (10 µM),probe-labelled cysteine peptide fold change (50 µM)
TXNDC5_Q8NBS9_128_VDCTAHSDVCSAQGVR (UniProt Q8NBS9),-0.0645,-0.13
UBE2E1_P51965_131_IYHCNINSQGVICLDILK (UniProt P51965),0.0832,0.188
UBA7_P41226_445_QHYLLVGAGAIGCELLK (UniProt P41226),-0.00329,0.0965
UBE2E1_P51965_67_ELADITLDPPPNCSAGPK (UniProt P51965),-0.0755,0.0668
UBR4_Q5T4S7_4839+4841_QMEELIEEPGLTCCICR (UniProt Q5T4S7),0.337,0.209
UBA3_Q8TBC4_28_MAVDGGCGDTGDWEGR (UniProt Q8TBC4),-0.144,-0.124
UBA3_Q8TBC4_82_VLVIGAGGLGCELLK (UniProt Q8TBC4),-0.221,-0.235
UBR2_Q8IWV8_112_VGEPTYSCR (UniProt Q8IWV8),-0.172,0.0842
UBE2T_Q9NPD8_86_ICLDVLK (UniProt Q9NPD8),-0.00663,0.103
UBASH3B_Q8TF42_367_RPYEDQGLGETTPLTIICQPMQPLR (UniProt Q8TF42),-0.187,-0.37
UBE2J2_Q8N2K1_157_VFCELFPEVVEEIK (UniProt Q8N2K1),0.0301,0.0455
UBR4_Q5T4S7_1900_RVAMCVLSSPHGR (UniProt Q5T4S7),-0.0522,0.0406
TXN_P10599_35_LVVVDFSATWCGPCK (UniProt P10599),-0.356,-0.505
UBAP2L_Q14157_68+75_NQDECVIALHDCNGDVNR (UniProt Q14157),-0.146,-0.229
UBE2M_P61081_95+111_CETMVYHPNIDLEGNVCLNILR (UniProt P61081),0.211,-0.0298
UBR2_Q8IWV8_1619_LINLPEDYSSLINQASNFSCPK (UniProt Q8IWV8),0.029,-0.0423
UBR2_Q8IWV8_115_DCAVDPTCVLCMECFLGSIHR (UniProt Q8IWV8),-0.0634,0.0238
UBQLN4_Q9NRR5_29_DKEEIVICDR (UniProt Q9NRR5),-0.0549,-0.248
UBA6_A0AVT1_156_YQCVVLTEMK,0.0118,0.0499
UBR4_Q5T4S7_4916_CNGLLPVWGPHVPESAFATCLAR (UniProt Q5T4S7),0.236,0.0857
UBAP1_Q9NZ09_434_KGENIEQILDYLFAHGQLCEK (UniProt Q9NZ09),-0.0198,0.0814

Target,probe-labelled cysteine peptide fold change (10 µM),probe-labelled cysteine peptide fold change (50 µM)
UBN1_Q9NPG3_38_EEAGAGEQHQDCEPAAAAVR (UniProt Q9NPG3),0.0183,-0.166
UBALD2_Q8IYN6_23_HQVMINQFVLAAGCAADQAK (UniProt Q8IYN6),0.0907,0.074
UBA2_Q9UBT2_161_KGVTECYECHPKPTQR (UniProt Q9UBT2),-0.0473,-0.0506
UBR2_Q8IWV8_127_DCAVDPTCVLCMECFLGSIHR (UniProt Q8IWV8),0.113,-0.112
UBA2_Q9UBT2_129_MCLAADVPLIESGTAGYLGQVTTIKK (UniProt Q9UBT2),-0.0291,0.0486
UBE3A_Q05086_480_FSFMTCPFILNAVTK (UniProt Q05086),0.0709,-0.0129
UBE4B_O95155_448_MCSQPAVSQLLSNIR (UniProt O95155),-0.0308,-0.187
UBR4_Q5T4S7_3677_CSASVPANPGVCGNCGENVYQCHK (UniProt Q5T4S7),0.0361,0.111
UBAP1_Q9NZ09_243_ATLDFKPLHKPNGFITLPQLGNCEK (UniProt Q9NZ09),-0.241,-0.382
U2AF2_P26368_464_YCDPDSYHR (UniProt P26368),-0.00882,0.0989
UBA1_P22314_748_RCPHPLTFDVNNPLHLDYVMAAANLFAQTYGLTGSQDR (UniProt P22314),0.00165,-0.123
UBR4_Q5T4S7_1033_TYINQLSMNSPEMSECDILHTLR (UniProt Q5T4S7),-0.0382,-0.152
UBA2_Q9UBT2_185_NTPSEPIHCIVWAK (UniProt Q9UBT2),-0.203,-0.0808
UBE3B_Q7Z3V4_311_DVCESLEGCHTLCLMGNLLHLGSLSPR (UniProt Q7Z3V4),0.00532,-0.304
UBE2L6_O14933_98_IYHPNVDENGQICLPIISSENWKPCTK (UniProt O14933),-0.209,-0.0943
UBA6_A0AVT1_721_ALQLLHCFPLDIR,-0.121,0.0812
UBA1_P22314_706_SLVLQRPQTWADCVTWACHHWHTQYSNNIR (UniProt P22314),-0.0392,0.101
UBE3A_Q05086_108_GAPNNSCSEIK (UniProt Q05086),-0.00611,-0.169
UBE4B_O95155_113_SQSMDIDGVSCEK (UniProt O95155),-0.00543,-0.147
UBE2L6_O14933_102_TCQVLEALNVLVNRPNIREPLR (UniProt O14933),-0.185,-0.337
